PubChem BioAssay AID1259308 | NCATS | 2017
In all, the deposit lists about 59,000 reagents; shown is a random part of them. Of all reagents, about 1,510 (2.6%) got an active call. 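Calls use total luciferase alone and ignore viability, so some active siRNAs may act by altering cell number.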 A number with no mark means an inactive call. The numbers tell different reagents against one gene apart.

Screen: 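Knock-downs that increase output of a recombinant reporter protein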 (primary screen)
System: human HEK293 embryonic kidney cells stably expressing firefly luciferase (HEK-CMV-Luc2-Hygro)
Reagent: single siRNA against human genes, 0.8 pmol siRNA per well
Timing: 72 h
Measurement: 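Reporter luminescence and viable-cell signal on separate replicate plates, given as percent of non-targeting control and median/MAD z-scores, plus per-cell luciferase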
Scale: total luciferase, z-score and total luciferase, % of control: higher = more reporter protein produced; luciferase per cell, z-score: higher = more reporter output per viable cell; viable cells, % of control: higher = more viable cells
Hit rule: 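An siRNA counts as active if its total luciferase robust z-score exceeds 3; genes with two or more such siRNAs out of three were retested with fresh siRNAs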
Meaning of the calls: active = raised luciferase; inactive = no rise

The opening 5 entries, ahead of the listing:
Gene | siRNA no. | total luciferase, z-score | total luciferase, % of control | luciferase per cell, z-score | viable cells, % of control
OPN1SW | 1 | 1.24 | 107 | 1.14 | 88.1
OPN1SW | 2 | 6.53 (active) | 212 | 3.73 | 88.6
OPN1SW | 3 | -0.625 | 69.5 | -0.262 | 83.2
M1AP | 1 | 0.332 | 88.5 | -0.193 | 104
M1AP | 2 | 0.835 | 98.5 | 0.45 | 97.8

The list itself, from the start:
Gene | siRNA no. | total luciferase, z-score | total luciferase, % of control | luciferase per cell, z-score | viable cells, % of control
OPN1SW | 1 | 1.24 | 107 | 1.14 | 88.1
OPN1SW | 2 | 6.53 (active) | 212 | 3.73 | 88.6
OPN1SW | 3 | -0.625 | 69.5 | -0.262 | 83.2
M1AP | 1 | 0.332 | 88.5 | -0.193 | 104
M1AP | 2 | 0.835 | 98.5 | 0.45 | 97.8
M1AP | 3 | -0.453 | 72.9 | -0.273 | 87.5
FDFT1 | 1 | 0.957 | 101 | 0.263 | 105
FDFT1 | 2 | 1.14 | 105 | 0.869 | 92.9
FDFT1 | 3 | 0.194 | 85.7 | -0.299 | 104
ADM | 1 | -0.135 | 79.2 | -0.589 | 103
ADM | 2 | -0.621 | 69.5 | -0.928 | 99.2
ADM | 3 | 0.851 | 98.8 | 1.94 | 66.2
MBD3L2 | 1 | 0.112 | 84.1 | 0.138 | 90.7
MBD3L2 | 2 | 0.205 | 86 | 0.0718 | 94.3
MBD3L2 | 3 | 1.13 | 104 | 0.812 | 94.1
PNP | 1 | -0.0332 | 81.2 | 0.102 | 88.4
PNP | 2 | 1.2 | 106 | 2.93 | 54.6
PNP | 3 | -0.537 | 71.2 | -0.82 | 98.8
ACTN2 | 1 | -0.234 | 77.2 | -0.773 | 106
ACTN2 | 2 | -0.183 | 78.2 | 0.00562 | 87.3
ACTN2 | 3 | -0.115 | 79.6 | -0.586 | 104
DPM1 | 1 | -0.994 | 62.1 | -1.22 | 95.6
DPM1 | 2 | 2.44 | 130 | 2.57 | 74
DPM1 | 3 | 0.526 | 92.3 | 0.196 | 98
LERFS | 1 | 2.68 | 135 | 1.81 | 93.9
LERFS | 2 | 0.135 | 84.6 | 0.128 | 91.4
LERFS | 3 | 0.169 | 85.2 | -0.992 | 124
MOS | 1 | -0.241 | 77.1 | -0.582 | 100
MOS | 2 | 0.634 | 94.5 | 0.221 | 99.6
MOS | 3 | -0.829 | 65.4 | -1.5 | 108
CNGA3 | 1 | -0.637 | 69.2 | 0.358 | 70.4
CNGA3 | 2 | -2.21 | 37.9 | -2.71 | 86.5
CNGA3 | 3 | -1.31 | 55.9 | -1.94 | 104
GMPR | 1 | 0.544 | 92.7 | 0.478 | 91.3
GMPR | 2 | -1.49 | 52.3 | -1.49 | 86.4
GMPR | 3 | 0.0122 | 82.1 | -0.328 | 100
COL4A4 | 1 | 1.3 | 108 | 1.71 | 76.8
COL4A4 | 2 | 0.852 | 98.8 | 0.909 | 86.9
COL4A4 | 3 | -0.906 | 63.9 | -0.798 | 88.1
ZC3HAV1L | 1 | -0.106 | 79.8 | -0.201 | 94
ZC3HAV1L | 2 | 0.156 | 85 | 0.526 | 82.7
ZC3HAV1L | 3 | -0.635 | 69.3 | -0.577 | 90.1
OR52D1 | 1 | -0.302 | 75.9 | -0.302 | 91.8
OR52D1 | 2 | -0.00569 | 81.8 | 0.144 | 88
OR52D1 | 3 | 0.908 | 99.9 | 2.56 | 56.9
CCDC192 | 1 | 0.284 | 87.5 | 0.48 | 86.2
CCDC192 | 2 | 1.15 | 105 | 0.523 | 102
CCDC192 | 3 | -0.877 | 64.4 | -0.106 | 74.1
PRELID3BP10 | 1 | 1.15 | 105 | 0.32 | 108
PRELID3BP10 | 2 | 3.06 (active) | 143 | 2.58 | 80.9
PRELID3BP10 | 3 | 4.59 (active) | 173 | 3.64 | 74.2
PRELID3BP10 | 4 | 1.1 | 104 | 1.1 | 86.7
PRELID3BP10 | 5 | -1.35 | 55.1 | -1.13 | 83
PRELID3BP10 | 6 | -1.74 | 47.3 | -1.27 | 73.7
SORBS2 | 1 | -0.462 | 72.7 | -0.26 | 87
SORBS2 | 2 | 0.953 | 101 | 1.07 | 84.9
SORBS2 | 3 | -2.29 | 36.3 | -1.75 | 64.4
